Assay results taken from the supplement of paper PMC10849652.
The other results are listed elsewhere or left out.

Protein sequences, listed by entry. Tags and fused reporters are not part of them. Lines headed by an entry give the natural chain unless they say otherwise; changes in a name come on top.
UniProt Q99633: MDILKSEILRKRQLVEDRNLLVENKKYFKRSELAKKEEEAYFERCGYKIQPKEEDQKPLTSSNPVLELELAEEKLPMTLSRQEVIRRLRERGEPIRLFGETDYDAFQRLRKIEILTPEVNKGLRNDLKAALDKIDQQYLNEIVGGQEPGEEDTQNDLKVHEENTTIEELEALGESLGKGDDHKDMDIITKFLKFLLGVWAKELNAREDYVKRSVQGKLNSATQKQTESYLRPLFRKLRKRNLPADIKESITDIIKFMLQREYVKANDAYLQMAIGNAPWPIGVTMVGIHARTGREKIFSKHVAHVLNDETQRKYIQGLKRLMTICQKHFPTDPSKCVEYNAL
UniProt Q15172: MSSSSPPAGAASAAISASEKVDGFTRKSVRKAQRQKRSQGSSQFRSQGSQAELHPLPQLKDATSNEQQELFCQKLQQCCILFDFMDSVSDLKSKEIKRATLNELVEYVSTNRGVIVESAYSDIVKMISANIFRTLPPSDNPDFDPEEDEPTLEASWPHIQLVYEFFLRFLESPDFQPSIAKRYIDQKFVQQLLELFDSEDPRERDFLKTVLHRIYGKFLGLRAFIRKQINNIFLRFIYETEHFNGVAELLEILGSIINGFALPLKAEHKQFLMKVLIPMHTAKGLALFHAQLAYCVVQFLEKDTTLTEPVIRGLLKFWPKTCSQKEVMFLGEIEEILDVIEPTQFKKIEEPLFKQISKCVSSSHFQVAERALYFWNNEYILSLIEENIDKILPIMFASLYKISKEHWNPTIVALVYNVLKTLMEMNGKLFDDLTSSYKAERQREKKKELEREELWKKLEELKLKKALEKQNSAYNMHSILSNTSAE
UniProt Q96A00: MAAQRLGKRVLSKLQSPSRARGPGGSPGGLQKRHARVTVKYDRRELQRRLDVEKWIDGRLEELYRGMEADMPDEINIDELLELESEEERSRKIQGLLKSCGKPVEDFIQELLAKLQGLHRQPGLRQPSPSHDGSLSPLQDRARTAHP
UniProt Q13131: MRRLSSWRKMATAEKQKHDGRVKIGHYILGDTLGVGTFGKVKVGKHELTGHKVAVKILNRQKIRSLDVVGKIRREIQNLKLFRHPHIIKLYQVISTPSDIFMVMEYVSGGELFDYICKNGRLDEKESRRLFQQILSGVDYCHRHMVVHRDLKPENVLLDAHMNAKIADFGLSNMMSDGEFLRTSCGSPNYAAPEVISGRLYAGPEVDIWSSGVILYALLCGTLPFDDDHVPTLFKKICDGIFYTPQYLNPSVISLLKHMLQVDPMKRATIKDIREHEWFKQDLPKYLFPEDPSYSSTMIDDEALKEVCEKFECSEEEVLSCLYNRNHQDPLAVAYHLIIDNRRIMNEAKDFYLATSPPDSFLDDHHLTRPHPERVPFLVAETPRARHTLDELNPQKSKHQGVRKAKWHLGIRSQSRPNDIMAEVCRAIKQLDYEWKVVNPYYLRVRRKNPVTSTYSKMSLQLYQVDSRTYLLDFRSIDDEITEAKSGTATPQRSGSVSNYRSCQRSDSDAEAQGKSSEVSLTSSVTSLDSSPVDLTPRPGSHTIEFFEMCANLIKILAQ
UniProt Q9NVM4: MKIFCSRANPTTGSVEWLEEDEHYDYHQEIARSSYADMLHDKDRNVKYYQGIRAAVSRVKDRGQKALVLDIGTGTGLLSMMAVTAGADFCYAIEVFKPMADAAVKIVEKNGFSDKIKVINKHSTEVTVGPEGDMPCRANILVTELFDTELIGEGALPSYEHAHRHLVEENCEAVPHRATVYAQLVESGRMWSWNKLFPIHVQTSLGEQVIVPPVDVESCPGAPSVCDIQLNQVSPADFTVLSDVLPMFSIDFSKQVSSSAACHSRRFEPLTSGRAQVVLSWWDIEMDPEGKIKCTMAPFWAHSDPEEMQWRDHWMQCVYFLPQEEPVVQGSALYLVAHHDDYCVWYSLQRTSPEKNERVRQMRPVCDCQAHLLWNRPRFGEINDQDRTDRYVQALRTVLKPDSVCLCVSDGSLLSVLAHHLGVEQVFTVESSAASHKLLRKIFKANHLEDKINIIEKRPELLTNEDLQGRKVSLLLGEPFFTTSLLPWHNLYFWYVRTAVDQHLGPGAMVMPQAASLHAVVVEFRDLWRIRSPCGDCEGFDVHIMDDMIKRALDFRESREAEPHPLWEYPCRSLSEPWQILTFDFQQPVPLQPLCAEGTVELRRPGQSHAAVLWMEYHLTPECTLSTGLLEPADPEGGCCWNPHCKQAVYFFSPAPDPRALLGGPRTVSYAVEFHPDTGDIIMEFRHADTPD
UniProt Q8TAP8: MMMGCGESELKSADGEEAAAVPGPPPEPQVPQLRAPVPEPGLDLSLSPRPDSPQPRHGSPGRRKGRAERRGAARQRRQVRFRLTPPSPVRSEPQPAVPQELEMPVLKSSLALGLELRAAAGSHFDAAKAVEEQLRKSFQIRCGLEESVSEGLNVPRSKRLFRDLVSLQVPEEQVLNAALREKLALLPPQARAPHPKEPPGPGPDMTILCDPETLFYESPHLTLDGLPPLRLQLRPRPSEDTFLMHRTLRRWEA
UniProt Q13523: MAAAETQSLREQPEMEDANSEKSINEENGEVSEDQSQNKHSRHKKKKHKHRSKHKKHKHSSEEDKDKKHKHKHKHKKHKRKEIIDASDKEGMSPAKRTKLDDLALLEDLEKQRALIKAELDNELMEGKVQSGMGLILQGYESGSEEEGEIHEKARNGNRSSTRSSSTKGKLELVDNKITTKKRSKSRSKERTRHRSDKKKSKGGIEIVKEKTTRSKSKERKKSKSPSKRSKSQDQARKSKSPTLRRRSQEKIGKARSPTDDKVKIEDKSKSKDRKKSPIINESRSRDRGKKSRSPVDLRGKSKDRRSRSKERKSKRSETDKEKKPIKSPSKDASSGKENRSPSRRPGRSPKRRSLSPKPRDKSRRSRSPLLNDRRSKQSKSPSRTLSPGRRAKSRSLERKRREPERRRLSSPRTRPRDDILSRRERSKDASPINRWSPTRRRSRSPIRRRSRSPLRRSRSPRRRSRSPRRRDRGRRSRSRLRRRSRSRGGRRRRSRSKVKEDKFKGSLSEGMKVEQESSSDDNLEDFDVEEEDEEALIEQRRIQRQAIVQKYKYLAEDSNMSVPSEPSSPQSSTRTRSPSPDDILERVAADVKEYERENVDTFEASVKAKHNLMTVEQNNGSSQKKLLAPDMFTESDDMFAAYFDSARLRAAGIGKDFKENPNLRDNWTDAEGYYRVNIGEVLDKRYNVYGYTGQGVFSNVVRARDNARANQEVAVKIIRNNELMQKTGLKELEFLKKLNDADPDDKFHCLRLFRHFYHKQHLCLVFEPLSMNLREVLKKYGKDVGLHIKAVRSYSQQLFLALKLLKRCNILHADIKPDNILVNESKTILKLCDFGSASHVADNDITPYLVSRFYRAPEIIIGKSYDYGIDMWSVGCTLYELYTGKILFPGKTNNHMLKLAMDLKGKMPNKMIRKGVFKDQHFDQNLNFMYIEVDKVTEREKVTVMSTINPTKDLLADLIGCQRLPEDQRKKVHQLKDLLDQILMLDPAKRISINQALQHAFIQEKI
UniProt P13861, whole entry, looked up: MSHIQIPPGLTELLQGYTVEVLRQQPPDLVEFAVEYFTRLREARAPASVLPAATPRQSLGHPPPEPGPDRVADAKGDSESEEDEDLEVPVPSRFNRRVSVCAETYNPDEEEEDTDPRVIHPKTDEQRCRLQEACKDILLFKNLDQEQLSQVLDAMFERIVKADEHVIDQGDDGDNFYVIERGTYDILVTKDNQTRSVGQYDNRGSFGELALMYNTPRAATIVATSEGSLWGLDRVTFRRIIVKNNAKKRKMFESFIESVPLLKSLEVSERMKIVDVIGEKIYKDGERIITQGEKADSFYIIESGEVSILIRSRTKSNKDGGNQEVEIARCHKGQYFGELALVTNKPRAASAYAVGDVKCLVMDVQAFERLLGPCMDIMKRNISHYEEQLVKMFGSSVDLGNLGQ
UniProt P07478, whole entry, looked up: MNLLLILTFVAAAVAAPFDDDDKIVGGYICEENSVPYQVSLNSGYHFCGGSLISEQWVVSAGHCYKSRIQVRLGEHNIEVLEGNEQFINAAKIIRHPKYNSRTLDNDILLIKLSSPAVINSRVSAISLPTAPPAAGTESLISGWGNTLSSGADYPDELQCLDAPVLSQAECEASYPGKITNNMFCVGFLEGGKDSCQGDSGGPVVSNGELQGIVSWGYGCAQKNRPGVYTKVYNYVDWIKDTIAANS
UniProt Q9BSG0: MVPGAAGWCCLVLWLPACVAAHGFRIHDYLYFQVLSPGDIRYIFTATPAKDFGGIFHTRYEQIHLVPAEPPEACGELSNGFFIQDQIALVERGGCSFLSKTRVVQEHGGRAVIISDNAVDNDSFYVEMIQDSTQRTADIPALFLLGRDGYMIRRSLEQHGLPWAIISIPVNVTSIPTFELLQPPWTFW
UniProt Q9UNN8: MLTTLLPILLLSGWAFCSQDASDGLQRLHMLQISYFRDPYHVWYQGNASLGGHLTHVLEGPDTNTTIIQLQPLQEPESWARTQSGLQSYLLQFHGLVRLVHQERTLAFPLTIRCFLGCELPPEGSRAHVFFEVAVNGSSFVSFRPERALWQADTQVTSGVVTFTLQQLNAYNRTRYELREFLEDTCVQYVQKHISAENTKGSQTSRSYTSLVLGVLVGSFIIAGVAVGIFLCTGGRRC
UniProt Q05655: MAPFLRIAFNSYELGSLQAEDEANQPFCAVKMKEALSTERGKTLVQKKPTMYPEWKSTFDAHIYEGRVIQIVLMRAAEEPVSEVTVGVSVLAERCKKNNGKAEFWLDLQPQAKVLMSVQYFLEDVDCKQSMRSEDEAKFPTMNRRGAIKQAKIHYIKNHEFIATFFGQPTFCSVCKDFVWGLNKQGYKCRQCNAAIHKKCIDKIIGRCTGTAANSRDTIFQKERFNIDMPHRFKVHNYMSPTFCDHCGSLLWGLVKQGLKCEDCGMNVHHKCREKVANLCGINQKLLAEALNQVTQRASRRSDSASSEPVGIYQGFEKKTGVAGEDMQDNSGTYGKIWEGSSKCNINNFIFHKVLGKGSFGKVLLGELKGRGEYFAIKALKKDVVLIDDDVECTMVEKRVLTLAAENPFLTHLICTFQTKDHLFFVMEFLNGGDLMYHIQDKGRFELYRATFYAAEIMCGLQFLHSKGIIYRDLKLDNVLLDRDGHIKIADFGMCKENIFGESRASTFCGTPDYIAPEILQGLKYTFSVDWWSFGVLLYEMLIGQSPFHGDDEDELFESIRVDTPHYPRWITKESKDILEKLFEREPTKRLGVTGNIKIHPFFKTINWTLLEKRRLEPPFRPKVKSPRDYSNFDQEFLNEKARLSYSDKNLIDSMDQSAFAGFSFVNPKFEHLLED
UniProt O14974: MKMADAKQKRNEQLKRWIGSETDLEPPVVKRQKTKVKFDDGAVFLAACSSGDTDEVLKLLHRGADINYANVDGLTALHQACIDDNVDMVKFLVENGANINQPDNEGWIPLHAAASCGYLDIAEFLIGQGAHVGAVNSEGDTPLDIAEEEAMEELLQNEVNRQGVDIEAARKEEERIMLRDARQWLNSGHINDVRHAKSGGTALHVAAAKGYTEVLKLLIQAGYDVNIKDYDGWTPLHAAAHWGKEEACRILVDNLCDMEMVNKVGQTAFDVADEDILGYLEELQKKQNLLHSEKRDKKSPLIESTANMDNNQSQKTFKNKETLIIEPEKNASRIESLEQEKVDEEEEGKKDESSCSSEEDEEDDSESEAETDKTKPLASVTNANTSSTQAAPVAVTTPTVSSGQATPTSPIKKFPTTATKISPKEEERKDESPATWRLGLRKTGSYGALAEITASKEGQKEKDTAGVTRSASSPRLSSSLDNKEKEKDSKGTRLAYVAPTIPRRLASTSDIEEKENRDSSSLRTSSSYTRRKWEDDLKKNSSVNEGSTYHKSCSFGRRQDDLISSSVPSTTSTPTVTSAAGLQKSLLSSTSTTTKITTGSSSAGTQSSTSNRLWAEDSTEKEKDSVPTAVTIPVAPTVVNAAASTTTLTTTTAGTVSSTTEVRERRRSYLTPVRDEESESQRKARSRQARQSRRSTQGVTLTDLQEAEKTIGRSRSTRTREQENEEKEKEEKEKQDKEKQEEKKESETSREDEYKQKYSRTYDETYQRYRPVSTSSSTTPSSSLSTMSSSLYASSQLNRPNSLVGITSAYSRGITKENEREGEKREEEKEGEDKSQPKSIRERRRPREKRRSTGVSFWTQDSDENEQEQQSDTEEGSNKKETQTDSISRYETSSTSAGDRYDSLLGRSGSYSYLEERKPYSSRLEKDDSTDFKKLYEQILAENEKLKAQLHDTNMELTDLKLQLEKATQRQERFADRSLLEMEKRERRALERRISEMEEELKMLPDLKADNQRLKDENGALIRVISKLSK
UniProt O75569: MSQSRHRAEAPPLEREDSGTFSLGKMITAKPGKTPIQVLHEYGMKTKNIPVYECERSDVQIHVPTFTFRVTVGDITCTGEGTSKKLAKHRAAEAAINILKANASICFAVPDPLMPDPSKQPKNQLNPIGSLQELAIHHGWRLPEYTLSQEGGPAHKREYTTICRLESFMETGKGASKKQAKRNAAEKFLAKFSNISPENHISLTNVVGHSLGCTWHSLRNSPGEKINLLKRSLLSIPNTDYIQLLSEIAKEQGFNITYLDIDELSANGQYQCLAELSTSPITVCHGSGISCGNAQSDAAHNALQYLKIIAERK

compound: Cc1nc(Nc2ncc(C(=O)Nc3c(C)cccc3Cl)s2)cc(N2CCN(CCO)CC2)n1 [dasatinib]; assay: log2 fold change, soluble protein after heating vs DMSO (PISA); higher = thermal stabilisation; K562 cells, 10 uM, 30 min; active = over 0.2 and 3.5 SD of the protein, either way, in both replicates (recomputed)
Summary of the method: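 For each measurement, 10 μM compound was applied for 30 min to K562 cells at 2×10^6 cells/mL. Aliquots were heated for 3 min across 48°C-58°C, pooled, and extracted in PBS with 0.5% NP-40 at 4°C; the supernatant after 21,000xg for 90 min was soluble protein. This was quantified by TMTpro 16plex LC-MS/MS with channel sums equalised, and thermal stability was reported relative to control samples from duplicates, on a log2 fold-change scale.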

log2 fold change, inactive:
PRPF18 (UniProt Q99633) 0.046, PRKCA (UniProt P17252) -0.233, PPP2R5A (UniProt Q15172) -0.205, PPP1R14A (UniProt Q96A00) 0.019, PRKACA (UniProt P17612) -0.107, PRKAA1 isoform 2 (UniProt Q13131) -0.069, PRMT7 (UniProt Q9NVM4) -0.213, PPP1R35 (UniProt Q8TAP8) -0.04, PRPF4B (UniProt Q13523) 0.081, PRKAR2A (UniProt P13861) -0.055, PRSS2 (UniProt P07478) 0.208, PRKAR1B (UniProt P31321) -0.013, PRADC1 (UniProt Q9BSG0) -0.207, PROCR (UniProt Q9UNN8) 0.034, PRKCD (UniProt Q05655) -0.049, PPP1R12A (UniProt O14974) -0.108, PRKRA (UniProt O75569) -0.02, PPP6R1 (UniProt Q9UPN7) -0.02
